Patent US20140243286A1, “BROMODOMAIN LIGANDS CAPABLE OF DIMERIZING IN AN AQUEOUS SOLUTION, AND METHODS OF USING SAME” (Coferon, Inc., priority 2011, published 2014)
Where two headings read alike, the source gives them in different places. Some results were stated once for a whole list of compounds, not compound by compound.

System: bromodomain
Test: TR-FRET assay
Type: binding
Method: TR-FRET assays were performed as described in Chung et al, J. Med Chem., 2011 54(11): 3827-38 except that FRET was measured on a Spectramax M5 plate reader.

[1] = BRD-E monomers, read-out: IC50 range, Group (FRET assay)
[2] = TR-FRET, BRD-N monomers, read-out: IC50 range (FRET assay), BRD-N monomers

Structure (SMILES): CCNC(=O)C[C@@H]1N=C(c2ccc(Cl)cc2)c2cc(OCCNC(=O)c3cccc(B(O)O)c3)ccc2-n2c(C)nnc21 [BRD-E-21, (S)-(3-((2-((6-(4-chlorophenyl)-4-(2-(ethylamino)-2-oxoethyl)-1-methyl-4H-benzo[f][1,2,4]triazolo[4,3-a]diazepin-8-yl)oxy)ethyl)carbamoyl)phenyl)boronic acid]
- IC50 [1]: 1 to 100 nM

Structure (SMILES): CCNC(=O)C[C@@H]1N=C(c2ccc(Cl)cc2)c2cc(OCCCNC(=O)c3ccc(O)c(O)c3)ccc2-n2c(C)nnc21 [BRD-N-26, (S)—N-(3-((6-(4-chlorophenyl)-4-(2-(ethylamino)-2-oxoethyl)-1-methyl-4H-benzo[f][1,2,4]triazolo[4,3-a][1,4]diazepin-8-yl)oxy)propyl)-3,4-dihydroxybenzaamide]
- IC50 [2]: 100 to 1000 nM

Structure (SMILES): CCNC(=O)C[C@@H]1N=C(c2ccc(Cl)cc2)c2cc(OCCCC(=O)Nc3cccc(B(O)O)c3)ccc2-n2c(C)nnc21 [BRD-E-19]
- IC50 [1]: 1 to 100 nM

Structure (SMILES): CCNC(=O)C[C@@H]1N=C(c2ccc(Cl)cc2)c2cc(OCC(=O)Nc3cccc(B(O)O)c3)ccc2-n2c(C)nnc21 [BRD-E-15, (S)-(3-(2-((6-(4-chlorophenyl)-4-(2-(ethylamino)-2-oxoethyl)-1-methyl-4H-benzo[f][1,2,4]triazolo[4,3-a][1,4]diazepin-8-yl)oxy)acetamido)phenyl)boronic acid]
- IC50 [1]: 1 to 100 nM

Structure (SMILES): CCNC(=O)C[C@@H]1N=C(c2ccc(Cl)cc2)c2cc(OCCNC(=O)c3ccc(B(O)O)cc3)ccc2-n2c(C)nnc21 [BRD-E-22, (S)-(4-((2-((6-(4-chlorophenyl)-4-(2-(ethylamino)-2-oxoethyl)-1-methyl-4H-benzo[f][1,2,4]triazolo[4,3-a]diazepin-8-yl)oxy)ethyl)carbamoyl)phenyl)boronic acid]
- IC50 [1]: 1 to 100 nM

Structure (SMILES): CCNC(=O)C[C@@H]1N=C(c2ccc(Cl)cc2)c2cc(OCCCNC(=O)c3cccc(B(O)O)c3)ccc2-n2c(C)nnc21 [BRD-E-23, (S)-(3-((3-((6-(4-chlorophenyl)-4-(2-(ethylamino)-2-oxoethyl)-1-methyl-4H-benzo[f][1,2,4]triazolo[4,3-a][1,4]diazepin-8-yl)oxy)propyl)carbamoyl)phenyl)boronic acid]
- IC50 [1]: 100 to 1000 nM

Structure (SMILES): COc1ccc2c(c1)C(c1ccc(Cl)cc1)=N[C@@H](CC(=O)NCCCNC(=O)c1cccc(B(O)O)c1)c1nnc(C)n1-2 [BRD-E-04, (3-((3-(2-((4S)-6-(4-chlorophenyl)-8-methoxy-1-methyl-4H-benzo[f][1,2,4]triazolo[4,3-a][1,4]diazepin-4-yl)acetamido)propyl)carbamoyl)phenyl)-boronic acid]
- IC50 [1]: 1 to 100 nM

Structure (SMILES): COc1ccc2c(c1)C(c1ccc(Cl)cc1)=N[C@@H](CC(=O)NCCCNC(=O)c1ccc(B(O)O)cc1)c1nnc(C)n1-2 [BRD-E-03, (4-((3-(2-((4S)-6-(4-chlorophenyl)-8-methoxy-1-methyl-4H-benzo[f][1,2,4]triazolo[4,3-a][1,4]diazepin-4-yl)acetamido)propyl)carbamoyl)phenyl)-boronic acid]
- IC50 [1]: 1 to 100 nM

Structure (SMILES): CCNC(=O)C[C@@H]1N=C(c2ccc(Cl)cc2)c2cc(OCCCCC(=O)Nc3cccc(B(O)O)c3)ccc2-n2c(C)nnc21 [BRD-E-20, (S)-(3-(5-((6-(4-chlorophenyl)-4-(2-(ethylamino)-2-oxoethyl)-1-methyl-4H-benzo[f][1,2,4]triazolo[4,3-a][1,4]diazepin-8-yl)oxy)pentanamido)phenyl)boronic acid]
- IC50 [1]: 1 to 100 nM

Structure (SMILES): COc1ccc2c(c1)C(c1ccc(Cl)cc1)=N[C@@H](CC(=O)NCCCCNC(=O)c1cccc(B(O)O)c1)c1nnc(C)n1-2 [BRD-E-06, (3-((4-(2-((4S)-6-(4-chlorophenyl)-8-methoxy-1-methyl-4H-benzo[f][1,2,4]triazolo[4,3-a][1,4]diazepin-4-yl)acetamido)butyl)carbamoyl)phenyl)boronic acid]
- IC50 [1]: 1 to 100 nM

Structure (SMILES): CCNC(=O)C[C@@H]1N=C(c2ccc(Cl)cc2)c2cc(OCCCCNC(=O)c3cccc(B(O)O)c3)ccc2-n2c(C)nnc21 [BRD-E-25, (S)-(3-((4-((6-(4-chlorophenyl)-4-(2-(ethylamino)-2-oxoethyl)-1-methyl-4H-benzo[f][1,2,4]triazolo[4,3-a][1,4]diazepin-8-yl)oxy)butyl)carbamoyl)phenyl)boronic acid]
- IC50 [1]: 100 to 1000 nM

Structure (SMILES): CCNC(=O)C[C@@H]1N=C(c2ccc(Cl)cc2)c2cc(OCCCNC(=O)c3ccc(B(O)O)cc3)ccc2-n2c(C)nnc21 [BRD-E-24, (S)-(4-((3-((6-(4-chlorophenyl)-4-(2-(ethylamino)-2-oxoethyl)-1-methyl-4H-benzo[f][1,2,4]triazolo[4,3-a][1,4]diazepin-8-yl)oxy)propyl)carbamoyl)phenyl)-boronic acid]
- IC50 [1]: 100 to 1000 nM

Structure (SMILES): CCNC(=O)C[C@@H]1N=C(c2ccc(Cl)cc2)c2cc(OCCCCNC(=O)c3ccc(B(O)O)cc3)ccc2-n2c(C)nnc21 [BRD-E-26, (S)-(4-((4-((6-(4-chlorophenyl)-4-(2-(ethylamino)-2-oxoethyl)-1-methyl-4H-benzo[f][1,2,4]triazolo[4,3-a][1,4]diazepin-8-yl)oxy)butyl)carbamoyl)phenyl)boronic acid]
- IC50 [1]: 100 to 1000 nM

Structure (SMILES): COc1ccc2c(c1)C(c1ccc(Cl)cc1)=N[C@@H](CC(=O)NCCCCNC(=O)c1ccc(B(O)O)cc1)c1nnc(C)n1-2 [BRD-E-05, (4-((4-(2-((4S)-6-(4-chlorophenyl)-8-methoxy-1-methyl-4H-benzo[f][1,2,4]triazolo[4,3-a][1,4]diazepin-4-yl)acetamido)butyl)carbamoyl)phenyl)boronic acid]
- IC50 [1]: 1 to 100 nM

Structure (SMILES): CCNC(=O)C[C@@H]1N=C(c2ccc(Cl)cc2)c2cc(OCC(=O)Nc3ccc(B(O)O)cc3)ccc2-n2c(C)nnc21 [BRD-E-16, (S)-(4-(2-((6-(4-chlorophenyl)-4-(2-(ethylamino)-2-oxoethyl)-1-methyl-4H-benzo[f][1,2,4]triazolo[4,3-a][1,4]diazepin-8-yl)oxy)acetamido)phenyl)boronic acid]
- IC50 [1]: 1 to 100 nM

Structure (SMILES): COc1ccc2c(c1)C(c1ccc(Cl)cc1)=N[C@@H](CC(=O)NCc1ccc(B(O)O)cc1)c1nnc(C)n1-2 [BRD-E-09, (S)-(4-((2-(6-(4-chlorophenyl)-8-methoxy-1-methyl-4H-benzo[f][1,2,4]triazolo[4,3-a][1,4]diazepin-4-yl)acetamido)methyl)phenyl)boronic acid]
- IC50 [1]: 1 to 100 nM

Structure (SMILES): COc1ccc2c(c1)C(c1ccc(Cl)cc1)=N[C@@H](CC(=O)NCCNC(=O)c1ccc(O)c(O)c1)c1nnc(C)n1-2 [BRD-N-01, N-(2-(2-((4S)-6-(4-chlorophenyl)-8-methoxy-1-methyl-4H-benzo[f][1,2,4]triazolo[4,3-a][1,4]diazepin-4-yl)acetamido)ethyl)-3,4-dihydroxybenzamide]
- IC50 [2]: 1 to 100 nM
